Here are results for one molecule from publication doi:10.1101/226183.

Protein sequences, listed by entry. Tags and fused reporters are not part of them. Lines headed by an entry give the natural chain unless they say otherwise; changes in a name come on top.
UniProt Q9M9N3: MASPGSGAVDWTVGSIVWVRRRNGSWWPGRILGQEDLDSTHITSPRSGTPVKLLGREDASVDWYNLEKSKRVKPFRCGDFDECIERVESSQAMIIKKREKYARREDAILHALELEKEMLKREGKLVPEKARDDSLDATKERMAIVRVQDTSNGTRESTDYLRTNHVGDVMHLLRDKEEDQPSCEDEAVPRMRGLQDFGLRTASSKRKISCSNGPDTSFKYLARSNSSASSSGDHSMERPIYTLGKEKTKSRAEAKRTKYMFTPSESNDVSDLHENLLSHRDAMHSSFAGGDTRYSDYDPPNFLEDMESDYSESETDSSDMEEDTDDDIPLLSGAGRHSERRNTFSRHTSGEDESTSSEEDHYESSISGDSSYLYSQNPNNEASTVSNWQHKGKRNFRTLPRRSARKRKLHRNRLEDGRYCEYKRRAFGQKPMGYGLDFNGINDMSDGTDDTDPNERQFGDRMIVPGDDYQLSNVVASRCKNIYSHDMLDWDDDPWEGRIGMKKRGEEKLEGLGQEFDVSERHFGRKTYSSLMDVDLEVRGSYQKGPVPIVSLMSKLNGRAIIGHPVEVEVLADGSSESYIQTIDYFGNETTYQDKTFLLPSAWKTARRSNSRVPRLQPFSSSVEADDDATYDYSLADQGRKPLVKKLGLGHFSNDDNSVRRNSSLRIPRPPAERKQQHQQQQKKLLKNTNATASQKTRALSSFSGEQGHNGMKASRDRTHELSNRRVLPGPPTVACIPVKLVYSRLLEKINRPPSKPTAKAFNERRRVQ

These are yes or no findings as the source states them, for the method shown. Binding seen in cells or lysates may run through a third protein. Binding calls can cover weak binding; strength is not graded here.

The target in the test is PWO1-GFP (PWO1pro::PWO1-GFP) (Arabidopsis thaliana) (UniProt Q9M9N3). Put plainly: co-IP.

B1: mCHERRY-CLF (i35Spro::mCHERRY-CLF) (protein, UniProt P93831 1-902)
chain: MASEASPSSSATRSEPPKDSPAEERGPASKEVSEVIESLKKKLAADRCISIKKRIDENKKNLFAITQSFMRSSMERGGSCKDGSDLLVKRQRDSPGMKSGIDESNNNRYVEDGPASSGMVQGSSVPVKISLRPIKMPDIKRLSPYTTWVFLDRNQRMTEDQSVVGRRRIYYDQTGGEALICSDSEEEAIDDEEEKRDFLEPEDYIIRMTLEQLGLSDSVLAELASFLSRSTSEIKARHGVLMKEKEVSESGDNQAESSLLNKDMEGALDSFDNLFCRRCLVFDCRLHGCSQDLIFPAEKPAPWCPPVDENLTCGANCYKTLLKSGRFPGYGTIEGKTGTSSDGAGTKTTPTKFSSKLNGRKPKTFPSESASSNEKCALETSDSENGLQQDTNSDKVSSSPKVKGSGRRVGRKRNKNRVAERVPRKTQKRQKKTEASDSDSIASGSCSPSDAKHKDNEDATSSSQKHVKSGNSGKSRKNGTPAEVSNNSVKDDVPVCQSNEVASELDAPGSDESLRKEEFMGETVSRGRLATNKLWRPLEKSLFDKGVEIFGMNSCLIARNLLSGFKSCWEVFQYMTCSENKASFFGGDGLNPDGSSKFDINGNMVNNQVRRRSRFLRRRGKVRRLKYTWKSAAYHSIRKRITEKKDQPCRQFNPCNCKIACGKECPCLLNGTCCEKYCGCPKSCKNRFRGCHCAKSQCRSRQCPCFAADRECDPDVCRNCWVIGGDGSLGVPSQRGDNYECRNMKLLLKQQQRVLLGISDVSGWGAFLKNSVSKHEYLGEYTGELISHKEADKRGKIYDRENCSFLFNLNDQFVLDAYRKGDKLKFANHSPEPNCYAKVIMVAGDHRVGIFAKERILAGEELFYDYRYEPDRAPAWAKKPEAPGSKKDENVTPSVGRPKKLA
In the case of B1, the binding result was “binds”.
